# PubChem BioAssay AID1259276 | Sanger Institute, 2017
# Aim: 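Kinome-wide search for kinases colon cancer cells need, and for drug partners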 (primary screen)
# Cells: human C2BBe1 colorectal cancer cells
# Reagents: siRNA pool against human genes
# Challenge: DMSO vehicle, or one anchor drug: BYL719 at 1 µM, cetuximab at 5 µg/ml, or trametinib at 10 nM; exposure length not stated
# Read-out: 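Cell viability as a fraction of non-targeting control wells, mean of replicates, also as a control-based robust z-score, plus a synergy score for each anchor drug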
# Scale: viability robust z-score, siRNA alone and viability vs control, siRNA alone: higher = more viable cells after knock-down; synergy score with BYL719: higher = stronger combined killing with BYL719; synergy score with cetuximab: higher = stronger combined killing with cetuximab; synergy score with trametinib: higher = stronger combined killing with trametinib
# Active means: 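a siRNA pool tested without drug is essential if its viability robust z-score falls under -3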
# Calls: active = essential (siRNA alone); inactive = no change (siRNA alone)
# Shown is one part, drawn at random, of 794 reagents. 24 of all reagents (3%) count as active. 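Calls come only from the siRNA-alone arm; drug synergy scores do not affect them.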 A number with no mark means an inactive call. No viability above 1 is reported: the scale is capped. Reagent sequences are not shown. Not given: the amount of reagent, the time to read-out.
Gene,PubChem SID,"viability robust z-score, siRNA alone","viability vs control, siRNA alone",synergy score with BYL719,synergy score with cetuximab,synergy score with trametinib
KIT,SID152151885,0.472,1,0.0222,-0.0115,-0.0667
SRPK2,SID56478890,0.472,1,-0.049,0.18,0.177
NEK11,SID152147168,-1.55,0.873,-0.145,0.0176,-0.185
TNIK,SID152153870,0.472,1,-0.142,0.00759,-0.0667
HIPK2,SID56478619,0.472,1,0.0533,0.0424,-0.0667
TYK2,SID135620633,-1.78,0.858,-0.211,-0.152,-0.127
MUSK,SID56478536,-1.6,0.869,0.05,-0.141,-0.106
BRD2,SID135620911,0.472,1,-0.142,-0.0115,-0.0667
MAP3K7,SID135620737,-4.97 (active),0.657,-0.233,-0.35,-0.177
MAP3K21,SID135620779,0.277,0.988,0.0844,-0.0236,-0.0782
CHD4,SID152156048,0.472,1,0.191,-0.0115,-0.0667
GK2,SID56479273,0.472,1,-0.142,-0.0115,-0.0667
MST1R,SID152152898,0.472,1,0.0816,-0.0115,-0.0667
ITPKB,SID56479111,0.472,1,0.0555,-0.0115,-0.0667
EFNA5,SID152151552,0.472,1,-0.142,-0.0115,-0.0667
CSNK2A2,SID56478861,-3.11 (active),0.774,0.208,-0.0236,0.149
CDKN2B,SID135620642,0.472,1,-0.142,-0.0115,-0.0667
PRKCI,SID152150879,0.472,1,-0.00184,-0.0115,0.0051
FGR,SID135620620,0.472,1,0.0848,0.273,0.154
TNK2,SID56478482,0.472,1,-0.105,0.027,-0.0667
ROR2,SID56478550,-0.623,0.931,-0.108,-0.0797,0.0128
MAP2K6,SID135620765,0.116,0.978,-0.0169,0.0277,-0.0876
PRKD1,SID152147507,0.472,1,0.12,-0.00896,-0.0667
VRK2,SID152152279,0.472,1,0.197,0.126,-0.0667
NME6,SID56479120,0.472,1,0.0273,0.178,-0.0534
TBCK,SID56479023,0.472,1,0.0734,0.066,-0.0667
APC,SID152153239,-0.499,0.939,-0.156,0.224,0.199
MAP3K15,SID152147179,0.472,1,-0.0968,-0.0115,-0.0667
MAST1,SID135620865,0.472,1,-0.142,-0.0115,-0.0667
BLK,SID56478485,0.472,1,-0.142,-0.0115,-0.0667
MYLK3,SID152154935,-0.203,0.957,-0.0705,-0.0535,0.164
AKT2,SID135620600,0.472,1,0.155,-0.0115,-0.0667
AURKC,SID152150186,0.472,1,0.234,0.181,-0.0667
PSKH1,SID135620975,0.472,1,-0.142,0.0281,-0.0667
MAP2K5,SID135620764,0.472,1,-0.142,-0.0115,-0.0667
MAGI2,SID135622325,-0.149,0.961,-0.175,0.0677,0.103
PKN3,SID56478823,0.472,1,0.0374,0.0924,-0.0667
GUCY2EP,SID152152788,0.472,1,0.188,0.0546,-0.0667
BRD4,SID152154839,0.472,1,-0.142,0.2,0.00294
NRAS,SID134310164,0.472,1,-0.142,-0.0115,-0.0667
MAP4K3,SID135620707,0.472,1,-0.0955,-0.0115,0.0765
FGFR1,SID135620619,0.472,1,-0.142,-0.0115,-0.0667
SRP72,SID135623816,0.472,1,-0.142,-0.0115,-0.0667
PAK1,SID135620692,0.472,1,0.305,0.106,-0.0667
BRAF,SID152153735,-1.73,0.861,-0.124,-0.0521,-0.188
MASTL,SID56478754,0.472,1,-0.108,-0.0115,-0.0667
STK11,SID152153881,-0.128,0.962,0.189,0.0718,-0.102
IRAK1,SID56478862,-1.93,0.849,-0.106,-0.124,-0.17
DUSP21,SID134312829,0.472,1,-0.142,-0.0115,-0.0667
ERN2,SID135620900,-0.014,0.969,-0.082,0.0691,0.175
PFKL,SID56479167,0.472,1,-0.142,0.0682,-0.0423
NUP62,SID135622326,0.472,1,-0.142,0.181,-0.0667
PFKFB4,SID152152940,0.472,1,-0.0476,-0.0115,-0.0667
BCOR,SID135620845,0.472,1,-0.0957,-0.0115,-0.0667
STK32A,SID152151517,0.472,1,-0.142,-0.0115,-0.0667
ATM,SID152150358,0.232,0.985,0.119,0.0696,0.00328
PDK2,SID56478952,0.472,1,0.0392,0.129,-0.0667
CAMKV,SID135620973,0.472,1,0.16,-0.0115,-0.0667
COQ8B,SID56478994,-0.0265,0.969,0.304,0.167,-0.096
CDC42BPB,SID152149037,0.472,1,-0.0998,-0.0115,-0.0667
PRKD3,SID56478959,0.472,1,0.124,0.641,0.043
PLK4,SID152155543,-3.19 (active),0.769,0.0854,-0.24,-0.167
PRKY,SID135620861,0.17,0.981,-0.00281,-0.0303,0.152

Laid out differently: results already given.
Gene	PubChem SID	viability robust z-score, siRNA alone	viability vs control, siRNA alone	synergy score with BYL719	synergy score with cetuximab	synergy score with trametinib
MAP3K21	SID135620779	0.277	0.988	0.0844	-0.0236	-0.0782
CHD4	SID152156048	0.472	1	0.191	-0.0115	-0.0667
GK2	SID56479273	0.472	1	-0.142	-0.0115	-0.0667
MST1R	SID152152898	0.472	1	0.0816	-0.0115	-0.0667
ITPKB	SID56479111	0.472	1	0.0555	-0.0115	-0.0667
